Results from paper PMC4831773.
No constants are given. Whether binding was seen depends on the method and setting. Binding calls can cover weak binding; strength is not graded here. For part of these data: Where a sequence is shown, tags or fusion partners need not be part of it. For part of these data: In cells and extracts the contact can be indirect.

Assays:
[1] = target: T1, Opaque2, endogenous in immature maize kernels (maize (endogenous in 15-DAP kernels)) (UniProt P12959); test: co-IP; 15-DAP maize kernel extract (50 mM Tris-Cl, 2.5 mM EDTA, 150 mM NaCl, 0.2% NP-40, 20% glycerol); precipitated with O2 antibody and Protein A Sepharose; blotted with ZmMADS47 and O2 antibodies
T1 sequence: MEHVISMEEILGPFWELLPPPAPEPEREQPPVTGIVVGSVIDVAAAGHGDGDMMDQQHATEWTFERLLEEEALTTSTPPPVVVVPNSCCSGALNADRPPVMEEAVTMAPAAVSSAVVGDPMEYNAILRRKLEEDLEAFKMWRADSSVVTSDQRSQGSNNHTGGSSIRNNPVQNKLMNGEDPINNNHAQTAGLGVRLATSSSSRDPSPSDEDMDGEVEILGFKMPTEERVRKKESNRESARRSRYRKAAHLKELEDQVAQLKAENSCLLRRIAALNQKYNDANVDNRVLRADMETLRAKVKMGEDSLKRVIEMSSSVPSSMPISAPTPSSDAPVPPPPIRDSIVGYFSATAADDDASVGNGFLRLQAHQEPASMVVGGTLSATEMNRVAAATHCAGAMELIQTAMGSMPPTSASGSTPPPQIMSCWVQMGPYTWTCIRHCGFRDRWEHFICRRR

[2] = target: T2, Opaque2 bZIP fragment O2-2 fused to the GAL4 DNA binding domain (pGBK-T7-O2(bZIP)) (maize (Zea mays)) (UniProt P12959); test: two-hybrid; yeast AH109; pGAD-T7-ZmMADS47 as prey, pGBK-T7-O2(bZIP) as bait; growth on QDO (SD/-Leu/-Trp/-Ade/-His) with 10 mM 3-AT
T2 sequence: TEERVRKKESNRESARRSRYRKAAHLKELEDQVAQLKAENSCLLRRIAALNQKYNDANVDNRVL

[3] = target: GST-tagged ZmMADS47 (ZmMADS47 ORF in pGEX-4T-1) (maize (Zea mays)); test: pull-down; GST or GST fusion held on Immobilized Glutathione Agarose, washed, incubated with His-O2 for more than 2 hours at 4°C; eluted with 100 mM glutathione; western blot; only the target purified

## ZmMADS47, endogenous in immature maize kernels
[1]
  binding: binds

## ZmMADS47, full-length ORF fused to the GAL4 activation domain (pGAD-T7-ZmMADS47) (from UniProt B6TCJ4)
[2]
  binding: binds

B1: His-tagged Opaque2 (O2 ORF in pET-32a) (protein, UniProt P12959 1-453)
chain: T1 sequence
[3]
  binding: binds
